# Reference: patent publication US11866515B2 (priority 2015, dated 2024)
# Assay: general procedure: solution-phase peptide synthesis; HATU/DIPEA
# Conditions: coupling step
substance,measurement,value
"ethyl(S,E)-4-((S)-2-((R)-3-(3-((S)-2-((S)-2-((((9H-fluoren-9-yl)methoxy)carbonyl)amino)-3-methylbutanamido)propanamido)phenyl)-3-methyl-2-(methylamino)butanamido)-N,3,3-trimethylbutanamido)-2,5-dimethylhex-2-enoate",step yield,70%
